# Experimental data as given in the supplement of paper PMC8728848.
# This is one part of the list.
# B1: Wzz (Escherichia coli) (protein)
# chain: MRTWKFPSVRVMMRVENNNVSGQNHDPEQIDLIDLLVQLWRGKMTIIISVIVAIVLAIGYLAVAKEKWTSTAIITQPDVGQIAGYNNAMNVIYGQAAPKVSDLQETLIGRFSSAFSALAETLDNQEEPEKLTIEPSVKNQQLPLTVSYVGQTAEGAQMKLAQYIQQVDDKVNQELEKDLKDNIALGRKNLQDSLRTQEVVAQEQKDLRIRQIQEALQYANQAQVTKPQIQQTGEDITQDTLFLLGSEALESMIKHEATRPLVFSSNYYQTRQNLLDIDNLDVDKLDIHAYLYVMKPTLPIRRDSPKKAITLILAVLLGGMVGAGIVLGRNALRNYNAK
# Columns and labels:
# Assay in all cases: glycan array binding signal (z-score within array); higher = stronger binding
# Conditions in all cases: glycan notation: IUPAC condensed, linker removed
# [1] = target: Kdn(a2-3)Gal(b1-4)Glc
# In short: (§1)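 Glycan array binding is given as a within-array Z-score, which can be read as non-binding when negative. The arrays, 3228 of them, came from the Consortium for Functional Glycomics database and were retained only where the protein sequence was available. Z-scores were averaged across arrays of the same protein sequence at different concentrations or buffers and across linkers.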
# [2] = target: Kdn(a2-3)Gal(b1-4)GlcNAc
# In short: as §1
# [3] = target: Kdn(a2-3)Gal(b1-4)[Fuc(a1-3)]GlcNAc
# In short: as §1
# [4] = target: Kdn(a2-6)Gal(b1-4)GlcNAc
# In short: as §1
# [5] = target: Man(a1-2)Man(a1-2)Man(a1-3)Man
# In short: as §1
# [6] = target: Man(a1-2)Man(a1-2)Man(a1-6)[Man(a1-3)]Man
# In short: as §1
# [7] = target: Man(a1-2)Man(a1-3)Man
# In short: as §1
# [8] = target: Man(a1-2)Man(a1-3)[Man(a1-2)Man(a1-6)]Man
# In short: as §1
# [9] = target: Man(a1-2)Man(a1-3)[Man(a1-2)Man(a1-6)]Man(a1-6)[Man(a1-2)Man(a1-2)Man(a1-3)]Man
# In short: as §1
# [10] = target: Man(a1-2)Man(a1-3)[Man(a1-2)Man(a1-6)]Man(a1-6)[Man(a1-2)Man(a1-2)Man(a1-3)]Man(b1-4)GlcNAc(b1-4)GlcNAc
# In short: as §1
# [11] = target: Man(a1-2)Man(a1-3)[Man(a1-6)]Man(a1-6)[Man(a1-2)Man(a1-3)]Man(b1-4)GlcNAc(b1-4)GlcNAc
# In short: as §1
# [12] = target: Man(a1-2)Man(a1-6)[Man(a1-3)]Man(a1-6)[Man(a1-2)Man(a1-2)Man(a1-3)]Man
# In short: as §1
# [13] = target: Man(a1-2)Man(a1-6)[Man(a1-3)]Man(a1-6)[Man(a1-2)Man(a1-2)Man(a1-3)]Man(b1-4)GlcNAc(b1-4)GlcNAc
# In short: as §1
# [14] = target: Man(a1-3)[Man(a1-6)]Man
# In short: as §1
# [15] = target: Man(a1-3)[Man(a1-6)]Man(a1-6)[Man(a1-2)Man(a1-3)]Man(b1-4)GlcNAc(b1-4)GlcNAc
# In short: as §1
# [16] = target: Man(a1-3)[Man(a1-6)]Man(a1-6)[Man(a1-3)]Man
# In short: as §1
# [17] = target: Man(a1-3)[Man(a1-6)]Man(a1-6)[Man(a1-3)]Man(b1-4)GlcNAc(b1-4)GlcNAc
# In short: as §1
# [18] = target: Man(a1-3)[Man(a1-6)]Man(b1-4)GlcNAc(b1-4)GlcNAc
# In short: as §1
# [19] = target: Man(a1-3)[Man(a1-6)]Man(b1-4)GlcNAc(b1-4)[Fuc(a1-6)]GlcNAc
# In short: as §1
# [20] = target: Man(a1-6)Man
# In short: as §1
# [21] = target: Man(b1-4)GlcNAc
# In short: as §1
# [22] = target: MurNAc(b1-4)GlcNAc
# In short: as §1
# [23] = target: Neu5Ac(a2-3)Gal
# In short: as §1
# [24] = target: Neu5Ac(a2-3)Gal(b1-3)GalNAc
# In short: as §1
# [25] = target: Neu5Ac(a2-3)Gal(b1-3)GalNAc(b1-3)Gal(a1-4)Gal(b1-4)Glc
# In short: as §1
# [26] = target: Neu5Ac(a2-3)Gal(b1-3)GalNAc(b1-4)Gal(b1-4)Glc
# In short: as §1
# [27] = target: Neu5Ac(a2-3)Gal(b1-3)GalNAc(b1-4)[Neu5Ac(a2-3)]Gal(b1-4)Glc
# In short: as §1
# [28] = target: Neu5Ac(a2-3)Gal(b1-3)GalNAc(b1-4)[Neu5Ac(a2-8)Neu5Ac(a2-3)]Gal(b1-4)Glc
# In short: as §1
# [29] = target: Neu5Ac(a2-3)Gal(b1-3)GalNAc6S
# In short: as §1
# [30] = target: Neu5Ac(a2-3)Gal(b1-3)GlcNAc
# In short: as §1
# [31] = target: Neu5Ac(a2-3)Gal(b1-3)GlcNAc(b1-2)Man
# In short: as §1
# [32] = target: Neu5Ac(a2-3)Gal(b1-3)GlcNAc(b1-2)Man(a1-3)[GlcNAc(b1-4)][Neu5Ac(a2-3)Gal(b1-3)GlcNAc(b1-2)Man(a1-6)]Man(b1-4)GlcNAc(b1-4)GlcNAc
# In short: as §1
# [33] = target: Neu5Ac(a2-3)Gal(b1-3)GlcNAc(b1-2)Man(a1-3)[Neu5Ac(a2-3)Gal(b1-3)GlcNAc(b1-2)Man(a1-6)]Man(b1-4)GlcNAc(b1-4)GlcNAc
# In short: as §1
# [34] = target: Neu5Ac(a2-3)Gal(b1-3)GlcNAc(b1-2)[Neu5Ac(a2-3)Gal(b1-3)GlcNAc(b1-4)]Man(a1-6)[Neu5Ac(a2-3)Gal(b1-3)GlcNAc(b1-2)Man(a1-3)]Man(b1-4)GlcNAc(b1-4)GlcNAc
# In short: as §1
# [35] = target: Neu5Ac(a2-3)Gal(b1-3)GlcNAc(b1-3)Gal(b1-3)GlcNAc
# In short: as §1
# [36] = target: Neu5Ac(a2-3)Gal(b1-3)GlcNAc(b1-3)Gal(b1-4)GlcNAc
# In short: as §1
# [37] = target: Neu5Ac(a2-3)Gal(b1-3)GlcNAc(b1-3)GalNAc
# In short: as §1
# [38] = target: Neu5Ac(a2-3)Gal(b1-3)GlcNAc(b1-6)GalNAc
# In short: as §1
binder,measurement,setting,value
B1,glycan array binding signal (z-score),[1],0.436
same,glycan array binding signal (z-score),[2],0.077
same,glycan array binding signal (z-score),[3],0.454
same,glycan array binding signal (z-score),[4],-0.175
same,glycan array binding signal (z-score),[5],-0.639
same,glycan array binding signal (z-score),[6],-0.326
same,glycan array binding signal (z-score),[7],-0.72
same,glycan array binding signal (z-score),[8],-1.03
same,glycan array binding signal (z-score),[9],0.17
same,glycan array binding signal (z-score),[10],0.545
same,glycan array binding signal (z-score),[11],-0.091
same,glycan array binding signal (z-score),[12],-0.448
same,glycan array binding signal (z-score),[13],0.013
same,glycan array binding signal (z-score),[14],-0.121
same,glycan array binding signal (z-score),[15],-0.195
same,glycan array binding signal (z-score),[16],-0.03
same,glycan array binding signal (z-score),[17],-0.522
same,glycan array binding signal (z-score),[18],-0.709
same,glycan array binding signal (z-score),[19],-0.523
same,glycan array binding signal (z-score),[20],0.131
same,glycan array binding signal (z-score),[21],-0.298
same,glycan array binding signal (z-score),[22],0.063
same,glycan array binding signal (z-score),[23],-0.898
same,glycan array binding signal (z-score),[24],0.407
same,glycan array binding signal (z-score),[25],-0.105
same,glycan array binding signal (z-score),[26],-0.951
same,glycan array binding signal (z-score),[27],0.406
same,glycan array binding signal (z-score),[28],-0.308
same,glycan array binding signal (z-score),[29],-0.676
same,glycan array binding signal (z-score),[30],0.438
same,glycan array binding signal (z-score),[31],-0.481
same,glycan array binding signal (z-score),[32],0.254
same,glycan array binding signal (z-score),[33],-0.728
same,glycan array binding signal (z-score),[34],-0.568
same,glycan array binding signal (z-score),[35],-0.236
same,glycan array binding signal (z-score),[36],0.643
same,glycan array binding signal (z-score),[37],-0.079
same,glycan array binding signal (z-score),[38],0.116

# Reprinted from the entries so far (two entries):
binder,measurement,setting,value
B1,glycan array binding signal (z-score),[9],0.17
same,glycan array binding signal (z-score),[10],0.545
